PubChem BioAssay AID1259308 – NCATS – 2017
The whole screen tested about 59,000 reagents; this is an unselected part. About 1,510 of all reagents (2.6%) count as active. 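Calls use total luciferase alone and ignore viability, so some active siRNAs may act by altering cell number.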 A number with no mark means an inactive call. Reagents against one gene are numbered here.

Assay: 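Knock-downs that increase output of a recombinant reporter protein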 (primary screen)
Cells: human HEK293 embryonic kidney cells stably expressing firefly luciferase (HEK-CMV-Luc2-Hygro)
Reagents: single siRNA against human genes, 0.8 pmol siRNA per well
Timing: 72 h
Read-out: 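Reporter luminescence and viable-cell signal on separate replicate plates, given as percent of non-targeting control and median/MAD z-scores, plus per-cell luciferase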
Scale: total luciferase, z-score and total luciferase, % of control: higher = more reporter protein produced; luciferase per cell, z-score: higher = more reporter output per viable cell; viable cells, % of control: higher = more viable cells
Rule for the call: 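An siRNA counts as active if its total luciferase robust z-score exceeds 3; genes with two or more such siRNAs out of three were retested with fresh siRNAs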
Meaning of the calls: active = raised luciferase; inactive = no rise

The first 3 entries as a preview:
target	reagent no.	total luciferase, z-score	total luciferase, % of control	luciferase per cell, z-score	viable cells, % of control
ZNF800 (GeneID 168850)	1	-0.855	64.9	-0.777	89
ZNF800 (GeneID 168850)	2	-2.61	30	-3.07	75.2
ZNF800 (GeneID 168850)	3	0.848	98.7	0.74	90.8

The listing, from the first entry:
target	reagent no.	total luciferase, z-score	total luciferase, % of control	luciferase per cell, z-score	viable cells, % of control
ZNF800 (GeneID 168850)	1	-0.855	64.9	-0.777	89
ZNF800 (GeneID 168850)	2	-2.61	30	-3.07	75.2
ZNF800 (GeneID 168850)	3	0.848	98.7	0.74	90.8
ALDH18A1 (GeneID 5832)	1	0.00164	81.9	0.0954	89.3
ALDH18A1 (GeneID 5832)	2	-0.663	68.7	-0.302	83.1
ALDH18A1 (GeneID 5832)	3	0.481	91.5	0.401	92
GATA6 (GeneID 2627)	1	0.47	91.2	0.626	86.5
GATA6 (GeneID 2627)	2	-0.861	64.8	-0.183	75.9
GATA6 (GeneID 2627)	3	4.45 (active)	170	3.24	81.1
CRCP (GeneID 27297)	1	0.162	85.1	0.116	92.2
CRCP (GeneID 27297)	2	0.202	85.9	-0.139	99.6
CRCP (GeneID 27297)	3	-0.838	65.2	-0.553	84.3
OR4F4 (GeneID 26682)	1	-0.0547	80.8	-0.295	97.6
OR4F4 (GeneID 26682)	2	-0.994	62.1	-1.59	106
OR4F4 (GeneID 26682)	3	0.165	85.2	0.562	82.1
FAT2 (GeneID 2196)	1	-0.0628	80.6	-0.235	95.9
FAT2 (GeneID 2196)	2	-0.852	64.9	-0.156	75.6
FAT2 (GeneID 2196)	3	0.115	84.2	0.178	89.8
RPL23AP43 (GeneID 389101)	1	0.126	84.4	0.614	80.2
RPL23AP43 (GeneID 389101)	2	-0.57	70.6	-1.1	105
RPL23AP43 (GeneID 389101)	3	-1.71	47.8	-0.879	67.4
EREG (GeneID 2069)	1	0.648	94.8	0.377	95.9
EREG (GeneID 2069)	2	-0.891	64.2	-0.903	90.9
EREG (GeneID 2069)	3	0.476	91.3	0.0949	99.6
ABCD1 (GeneID 215)	1	0.387	89.6	0.0273	99.4
ABCD1 (GeneID 215)	2	1.15	105	2.29	64.1
ABCD1 (GeneID 215)	3	0.00472	82	-0.977	118
ROCK1P1 (GeneID 727758)	1	0.292	87.7	-0.497	112
ROCK1P1 (GeneID 727758)	2	3.27 (active)	147	2.66	81.4
ROCK1P1 (GeneID 727758)	3	-1.81	45.8	-2.06	88.2
XRN1 (GeneID 54464)	1	2.16	125	1.08	105
XRN1 (GeneID 54464)	2	-0.756	66.8	-0.988	96.9
XRN1 (GeneID 54464)	3	0.558	93	0.728	85.8
MRPS21 (GeneID 54460)	1	-0.616	69.6	0.634	65.8
MRPS21 (GeneID 54460)	2	0.331	88.5	1.13	73.5
MRPS21 (GeneID 54460)	3	-0.37	74.5	-0.381	92.1
NHSL2 (GeneID 340527)	1	-0.371	74.5	-0.0703	84.8
NHSL2 (GeneID 340527)	2	2.3	128	2.33	77.2
NHSL2 (GeneID 340527)	3	-0.668	68.6	-0.113	79
NHSL2 (GeneID 340527)	4	-2.19	38.4	-1.65	66.3
NHSL2 (GeneID 340527)	5	0.0667	83.2	0.993	71.6
NHSL2 (GeneID 340527)	6	-0.329	75.3	-0.134	87.2
RSAD2 (GeneID 91543)	1	2.61	134	3.07	66.7
RSAD2 (GeneID 91543)	2	-0.711	67.8	-1.03	99.2
RSAD2 (GeneID 91543)	3	0.166	85.2	0.0115	94.9
SNX31 (GeneID 169166)	1	0.144	84.8	0.111	92
SNX31 (GeneID 169166)	2	-0.219	77.5	-0.233	92.1
SNX31 (GeneID 169166)	3	-0.0786	80.3	-0.015	90.1
PIAS1 (GeneID 8554)	1	-0.55	70.9	-1.02	104
PIAS1 (GeneID 8554)	2	0.217	86.2	-0.744	117
PIAS1 (GeneID 8554)	3	0.249	86.8	-0.0429	98.1
ELOVL1 (GeneID 64834)	1	-0.839	65.2	-0.606	85.5
ELOVL1 (GeneID 64834)	2	1.69	116	0.906	102
ELOVL1 (GeneID 64834)	3	-0.0065	81.8	0.676	76.5
ZNF613 (GeneID 79898)	1	0.0523	82.9	-0.407	103
ZNF613 (GeneID 79898)	2	-0.849	65	-1.42	106
ZNF613 (GeneID 79898)	3	-0.221	77.5	-0.779	106
